The list shows a part of the results.
Target: OsWRKY34 (Oryza sativa, UniProt Q0JBA9 1-250)
Assay: protein-binding microarray (RPBM); PBS, 2% BSA, 51.3 ng/ul salmon testes DNA, 50 uM zinc acetate, 200 nM TF, 25 C, 1 h; high values mean tight binding
Settings: protein: recombinant; tags: N-terminal polyhistidine and DsRed monomer fusion (pET32a); label: CyDye5-dUTP incorporated in the synthesized complementary strand; 3' TTTTT single-stranded linker to array surface; dsDNA, one strand shown
How it was run: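 Binding signal is reported as fluorescence intensity per feature (arbitrary units) from an Axon 4000B scanner. Incubation used 200 nM of each Ni–NTA-purified, N-terminally polyhistidine- and DsRed-fused transcription factor from E. coli BL21-CodonPlus on a double-stranded custom Agilent array for 1 h at 25 °C, with 50 µM zinc acetate in the buffer, followed by washing.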

The chains behind the UniProt entries cited, without tags or fusion partners.
UniProt Q0JBA9, entry or part of it: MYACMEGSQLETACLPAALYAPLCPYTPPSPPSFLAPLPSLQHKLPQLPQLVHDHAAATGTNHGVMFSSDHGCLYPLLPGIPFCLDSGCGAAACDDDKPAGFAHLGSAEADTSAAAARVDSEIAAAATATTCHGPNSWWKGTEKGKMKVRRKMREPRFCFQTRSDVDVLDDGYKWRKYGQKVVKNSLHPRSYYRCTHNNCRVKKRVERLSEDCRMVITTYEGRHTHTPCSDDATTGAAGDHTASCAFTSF

Row | Sequence | binding signal
1 | TCGCTGCTGAGTGTTGACCCGGCCCAGATGAACTTGACAACGGAGTCACCTAGTGCAG | 8500 fluorescence intensity (a.u.)
2 | AGTTTTGCTAGCTGCTGCTTCACTCTACTGTTCGGCCATGCGGAGTCACCTAGTGCAG | 8260 fluorescence intensity (a.u.)
3 | GGTCTACAAAATATACCTTTGACCTTATTTTTTATTATAACGGAGTCACCTAGTGCAG | 8210 fluorescence intensity (a.u.)
4 | TCATTATTAGCCGATTGGTTTCTACTGATTTATATTCTTGCGGAGTCACCTAGTGCAG | 8410 fluorescence intensity (a.u.)
5 | GTCATTTTCTGTATGCTATTCTATATTGGAAGCTTTCTGTCGGAGTCACCTAGTGCAG | 8300 fluorescence intensity (a.u.)
6 | CTATTCGTATATGCACTTCCATTCCAAAATATAATAACTTCGGAGTCACCTAGTGCAG | 8810 fluorescence intensity (a.u.)
7 | GTGGTTATTTGGCTCTAAGGGTTATGTCCGCTTGCGAAAACGGAGTCACCTAGTGCAG | 8940 fluorescence intensity (a.u.)
8 | TTCCTCTCCTCTTCTGCGCGGCTTCAAAGTTTTCGGCTTTCGGAGTCACCTAGTGCAG | 8510 fluorescence intensity (a.u.)
9 | TTTCATTTATTTCTCATTTCTTAATCCCATTTGTATTTTTCGGAGTCACCTAGTGCAG | 8380 fluorescence intensity (a.u.)
10 | TATTTGATTCAACTGTGCTATTTACATTTTCTTCAATTTTCGGAGTCACCTAGTGCAG | 11700 fluorescence intensity (a.u.)
11 | TCGCCGAGGAGAGCAGAGCAGGGGAGGGGAGGGGATCCTGCGGAGTCACCTAGTGCAG | 10900 fluorescence intensity (a.u.)
12 | AATGTATTTTTTCTAAATTTTTTTTCATCTTGTCCGTTCCCGGAGTCACCTAGTGCAG | 8230 fluorescence intensity (a.u.)
13 | CTCCCAAATCATTCCATCTGCTGCCTTTGCAAGTTTCAACCGGAGTCACCTAGTGCAG | 13700 fluorescence intensity (a.u.)
14 | AAGTTATCACTATCAACTTTCGGCGCTGCCTGTTTACATACGGAGTCACCTAGTGCAG | 10100 fluorescence intensity (a.u.)
15 | CTTCCCATGCACGCCGCTCTCACCTGATTGCCATTGTCCGCGGAGTCACCTAGTGCAG | 11400 fluorescence intensity (a.u.)
16 | CGACATGCTCGTTCGCTCTGTCCGCTCTGCGCGCCACTCTCGGAGTCACCTAGTGCAG | 8400 fluorescence intensity (a.u.)
17 | ACATCATATCTAAGGTTAGTTTCACCTGTGTACTTGCATACGGAGTCACCTAGTGCAG | 10800 fluorescence intensity (a.u.)
18 | TGCATGCTTCATTGGTCTCACCATCTTGAACTTGAATTCACGGAGTCACCTAGTGCAG | 8290 fluorescence intensity (a.u.)
19 | AGACTATATTGTGCCATCCTTTGGTATCCTTATGCATTTGCGGAGTCACCTAGTGCAG | 9560 fluorescence intensity (a.u.)
20 | GTCATGCAATACGTTTGACCATATTGTACCCAATTTACAACGGAGTCACCTAGTGCAG | 9840 fluorescence intensity (a.u.)
21 | GCACGCAACGCATCTCCGCCGTCCATCGCATCCACCCCGCCGGAGTCACCTAGTGCAG | 12200 fluorescence intensity (a.u.)
22 | TTGTCTCCTATCTTGTGCCGTGCCTTCTTAAACCATTGCTCGGAGTCACCTAGTGCAG | 8610 fluorescence intensity (a.u.)
23 | TCCTTTTACGTTCTTGTATTAGAATCAATCTTTTTTTGTCCGGAGTCACCTAGTGCAG | 8520 fluorescence intensity (a.u.)
24 | TTCTGCCGCCCGCCGCCCGGGAAGCTCCGCCTCCGCCGTCCGGAGTCACCTAGTGCAG | 8850 fluorescence intensity (a.u.)
25 | CTCCTCGCTTCTTCTCGCCGCCGCGCCCGCGCGCTGCTGCCGGAGTCACCTAGTGCAG | 8750 fluorescence intensity (a.u.)
26 | AGGTTCCGGGAGGGCGGGGTGGAGCACGAGGCGGCGGTGCCGGAGTCACCTAGTGCAG | 10600 fluorescence intensity (a.u.)
27 | GCTATGATCCTTTTTTTTTCTTCTCGTCTGGCTTTTGTCACGGAGTCACCTAGTGCAG | 10700 fluorescence intensity (a.u.)

Row | Sequence | binding signal
28 | TTGATCTGGTTTTCGCAGGTTGCCGCTTCGAATCTCGCCGCGGAGTCACCTAGTGCAG | 10700 fluorescence intensity (a.u.)
29 | TGTACTGTGCCAACAACTCCACTGTCCACTCACTTTTTCTCGGAGTCACCTAGTGCAG | 8570 fluorescence intensity (a.u.)
30 | GCTTACGTGTGCCGAAGCAGCGGCGGCCGGCGCCTCCTCCCGGAGTCACCTAGTGCAG | 8250 fluorescence intensity (a.u.)
31 | GATTGCTCTGCCTGGGGACGGTGTTGCTCTGCTTGGACTTCGGAGTCACCTAGTGCAG | 8220 fluorescence intensity (a.u.)
32 | AACCGCAACCAACTAACTCTCCCGGGAGATCACGGGCATTCGGAGTCACCTAGTGCAG | 8310 fluorescence intensity (a.u.)
33 | ACCAGAACCAGCTGTTCCGTTGACCGGACCACCAACGCTGCGGAGTCACCTAGTGCAG | 15500 fluorescence intensity (a.u.)
34 | TCGATCGATCACGTCGCAAACACACACAGTACACACGCAACGGAGTCACCTAGTGCAG | 8370 fluorescence intensity (a.u.)
35 | GTGGCGCCGGCGTCCTCCTGCTCCCGCCTCATTCGCTCACCGGAGTCACCTAGTGCAG | 9900 fluorescence intensity (a.u.)
36 | GGAACGGCCAGCGGCGGCGGCGGGTAGGGTGGGGTGGGGCCGGAGTCACCTAGTGCAG | 21600 fluorescence intensity (a.u.)
37 | ATGTGGACTTTTTTCCAATTTCCCCGCACTGCCCGCCCCGCGGAGTCACCTAGTGCAG | 8590 fluorescence intensity (a.u.)
38 | GTCCCTGGCTTTCTTCGTCTCTCTTCATGTCGCCGGCACACGGAGTCACCTAGTGCAG | 10600 fluorescence intensity (a.u.)
39 | GCACTCTCTCTCTCCTCGTTGTCCCTCCCGTCCCGTCTCTCGGAGTCACCTAGTGCAG | 8110 fluorescence intensity (a.u.)
40 | TTCTTCCTCGCCGGCCACACACAGTTCATCCAACCACTTGCGGAGTCACCTAGTGCAG | 11600 fluorescence intensity (a.u.)
41 | GTGTGTTTTTCTGTATGTTGGGGTAGCAGCAAGCAGGAGGCGGAGTCACCTAGTGCAG | 8460 fluorescence intensity (a.u.)
42 | TAGTGGTTAGGGGTATCATGGAGAGGAATTTAAATTGGAACGGAGTCACCTAGTGCAG | 8580 fluorescence intensity (a.u.)
43 | GACCGGAATTCTTTTTTCTTATCCTTTATCTTTGCTAAACCGGAGTCACCTAGTGCAG | 13000 fluorescence intensity (a.u.)
44 | CTGTTTTGACAAATTGTTCATCGGTCGCTGCTTCTGTGGACGGAGTCACCTAGTGCAG | 8750 fluorescence intensity (a.u.)
45 | CTCAGCTTCTCCTCTCTCTCTCTCCTCGTACGCGCCAACACGGAGTCACCTAGTGCAG | 8550 fluorescence intensity (a.u.)
46 | CGCTCTCTCTCTCTACACCATAGAGCCGTTCATGTTCTGTCGGAGTCACCTAGTGCAG | 10000 fluorescence intensity (a.u.)
47 | GGGGAGATTTAGGATGTGTTCGGTTGGAGGGATTTTCTAACGGAGTCACCTAGTGCAG | 11100 fluorescence intensity (a.u.)
48 | CATCGTACCAATTTCAACCCAAACTTCTACCTTTGAAAGTCGGAGTCACCTAGTGCAG | 8640 fluorescence intensity (a.u.)
49 | ACCCATTTCATATTATAAGTCATTTGACTTTTTTCTAGTCCGGAGTCACCTAGTGCAG | 12000 fluorescence intensity (a.u.)
50 | AATTATTTGTCTAGTTTCATCGTTAGAATTTATCTTTTCTCGGAGTCACCTAGTGCAG | 10300 fluorescence intensity (a.u.)
51 | AGACGCCTCGCTGTCGACGGGTTTCTCTTGGGTATGGGATCGGAGTCACCTAGTGCAG | 8890 fluorescence intensity (a.u.)
52 | TGTTGCAATTGTGGTATTCTTCCTTCTGGTGGTCGCGTTCCGGAGTCACCTAGTGCAG | 9640 fluorescence intensity (a.u.)
53 | TCACTCTCTTCATCTCATGAGCATCTCACTCACTCATCTCCGGAGTCACCTAGTGCAG | 8710 fluorescence intensity (a.u.)
54 | TTCTCCTGCTACCTGGTTGCTTCTTGTGTTCTTGTGCTACCGGAGTCACCTAGTGCAG | 10000 fluorescence intensity (a.u.)

Looked up above:
binding signal, TAGTGGTTAGGGGTATCATGGAGAGGAATTTAAATTGGAACGGAGTCACCTAGTGCAG is entered as 8580 fluorescence intensity (a.u.)
binding signal, CATCGTACCAATTTCAACCCAAACTTCTACCTTTGAAAGTCGGAGTCACCTAGTGCAG is entered as 8640 fluorescence intensity (a.u.)

From publication PMC7819943, “Rice protein-binding microarrays: a tool to detect cis-acting elements near promoter regions in rice”
